Data published in patent US20190048079A1.
These are yes or no findings as the source states them, for the method shown. In cells and extracts the contact can be indirect. Some entries that bind do so weakly or less than the wild type.

Amino acid sequences for entries named in this document (tags omitted).
UniProt P26718: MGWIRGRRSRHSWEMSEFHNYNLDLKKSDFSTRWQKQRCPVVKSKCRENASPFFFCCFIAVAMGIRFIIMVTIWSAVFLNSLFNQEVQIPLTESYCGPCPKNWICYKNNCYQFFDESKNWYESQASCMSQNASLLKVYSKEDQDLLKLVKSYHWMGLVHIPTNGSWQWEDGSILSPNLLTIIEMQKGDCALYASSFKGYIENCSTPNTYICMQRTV

Columns and labels:
NKG2D receptor (human) [1] = molecular target: NKG2D receptor (human) (UniProt P26718); experiment: co-immunoprecipitation with anti-NKG2D mAb 5C6, immunoblot for DAP10
NKG2D receptor (human) [2] = molecular target: NKG2D receptor (human) (UniProt P26718); experiment: co-immunoprecipitation from tumor line lysates, immunoblot

- binding (NKG2D receptor (human) [1]): binds
- binding (NKG2D receptor (human) [2]): binds
B1: DAP10 signaling adaptor (protein, human, UniProt Q9UBK5 19-93, looked up)
chain: QTTPGERSSLPAFYPGTSGSCSGCGSLSLPLLAGLVAADAVASLLIVGAVFLCARPRRSPAQEDGKVYINMPGRG
